# Source: the supplement of paper PMC11637464
# Where a name gives a salt, the structure may show the parent alone. The list shows a part of the results. Most values come without repeats; read them as rough.
# Experiments:
# [1] = system: primary mouse Muller glia with Ascl1 overexpression; test: Neuronal cell count fold change vs Ascl1-only control (log2 fold change); higher = more neurogenesis
# [2] = system: primary mouse Muller glia with Ascl1 overexpression; test: progenitor-like (ProL) cell count fold change vs Ascl1-only control (log2 fold change); higher = more progenitor-like cells
# [3] = system: primary mouse Muller glia with Ascl1 overexpression; test: total cells recovered per well; higher = more cells recovered; conditions: 0.1 µM
structure (smiles),measurement,setting,value
"CCCC(CCC)C(=O)O [Valproic acid, sodium salt] (collection day: 1)",Neuronal cell count fold change,[1]; 0.1 µM,-0.556
same,Neuronal cell count fold change,[1]; 1 µM,-0.474
same,Neuronal cell count fold change,[1]; 10 µM,-0.396
same,progenitor-like (log2),[2]; 0.1 µM,0.541
same,progenitor-like (log2),[2]; 1 µM,0.184
same,progenitor-like (log2),[2]; 10 µM,0.541
CNCCC(Oc1ccc(C(F)(F)F)cc1)c1ccccc1 (stereo not drawn) [Fluoxetine hydrochloride] (collection day: 1),Neuronal cell count fold change,[1]; 0.1 µM,-0.474
same,Neuronal cell count fold change,[1]; 1 µM,-0.644
same,progenitor-like (log2),[2]; 0.1 µM,0.67
same,progenitor-like (log2),[2]; 1 µM,0.295
COc1cccc(-c2cc(=O)c3ccccc3o2)c1N (collection day: 1),Neuronal cell count fold change,[1]; 0.1 µM,-0.737
same,Neuronal cell count fold change,[1]; 1 µM,-0.322
same,Neuronal cell count fold change,[1]; 10 µM,-0.12
CN(C)c1ccccc1CN1CCCN(Cc2ccccc2N(C)C)C1c1ccncc1 (collection day: 1),Neuronal cell count fold change,[1]; 0.1 µM,-0.396
same,Neuronal cell count fold change,[1]; 10 µM,0.164
same,progenitor-like (log2),[2]; 0.1 µM,0.495
same,progenitor-like (log2),[2]; 10 µM,0.184
O=c1[nH]c(=O)n([C@H]2C[C@H](O)[C@@H](CO)O2)cc1Br (collection day: 2),progenitor-like (log2),[2]; 0.1 µM,0.341
same,progenitor-like (log2),[2]; 1 µM,0.29
same,progenitor-like (log2),[2]; 10 µM,-0.244
O=C(Nc1cccc2cccnc12)c1ccc(N2C(=O)[C@@H]3[C@H](C2=O)[C@@H]2C=C[C@H]3C2)cc1 [endo-IWR 1] (collection day: 2),progenitor-like (log2),[2]; 10 µM,0.391
CC(C)N(CCCNC(=O)Nc1ccc(C(C)(C)C)cc1)C[C@H]1O[C@@H](n2ccc3c(N)ncnc32)[C@H](O)[C@@H]1O (collection day: 2),Neuronal cell count fold change,[1]; 1 µM,0.3
same,Neuronal cell count fold change,[1]; 10 µM,0.692
same,progenitor-like (log2),[2]; 1 µM,-0.684
same,progenitor-like (log2),[2]; 10 µM,-0.0656
c1ccc2c(-c3cnn4cc(-c5ccc(N6CCNCC6)cc5)cnc34)ccnc2c1 (collection day: 2),Neuronal cell count fold change,[1]; 0.1 µM,0.3
Cc1cccc(-c2[nH]ncc2-c2ccc3ncccc3n2)n1 (collection day: 2),Neuronal cell count fold change,[1]; 0.1 µM,1.16
same,Neuronal cell count fold change,[1]; 1 µM,0.469
same,Neuronal cell count fold change,[1]; 10 µM,1.21
same,progenitor-like (log2),[2]; 0.1 µM,-0.0995
same,progenitor-like (log2),[2]; 1 µM,0.316
same,progenitor-like (log2),[2]; 10 µM,-0.0656
O=C1NC(=O)c2c1c(-c1ccccc1)cc1[nH]c3ccc(O)cc3c21 (collection day: 1),progenitor-like (log2),[2]; 0.1 µM,0.184
Cc1c(C)c2c(c(C)c1O)CCC(C)(COc1ccc(CC3SC(=O)NC3=O)cc1)O2 (stereo not drawn) [Troglitazone] (collection day: 1),total cells recovered per well,[3],92
same,Neuronal cell count fold change,[1]; 0.1 µM,0
same,progenitor-like (log2),[2]; 0.1 µM,0
O=C1Cc2c([nH]c3ccc(Br)cc23)-c2ccccc2N1 [Kenpaullone] (collection day: 1),Neuronal cell count fold change,[1]; 0.1 µM,-0.0589
same,Neuronal cell count fold change,[1]; 1 µM,-0.184
same,progenitor-like (log2),[2]; 0.1 µM,0.348
same,progenitor-like (log2),[2]; 1 µM,0.495
C=C[C@@]1(C)CC(=O)[C@]2(O)[C@@]3(C)[C@@H](O)CCC(C)(C)[C@@H]3[C@H](O)[C@H](OC(C)=O)[C@@]2(C)O1 [Forskolin] (collection day: 1),progenitor-like (log2),[2]; 0.1 µM,0.447
same,progenitor-like (log2),[2]; 1 µM,0
same,progenitor-like (log2),[2]; 10 µM,0.447
CC(ONC(=O)c1cc(C(F)(F)F)cc(C(F)(F)F)c1)C(=O)Nc1ccc(Cl)cc1 (stereo not drawn) (collection day: 2),progenitor-like (log2),[2]; 0.1 µM,-0.363
same,progenitor-like (log2),[2]; 1 µM,0.0317
OCCNC1CCCc2c1[nH]c1ccc(-c3ccccc3)cc21 (stereo not drawn) (collection day: 2),Neuronal cell count fold change,[1]; 0.1 µM,-0.115
same,Neuronal cell count fold change,[1]; 1 µM,0.206
same,progenitor-like (log2),[2]; 0.1 µM,0.123
same,progenitor-like (log2),[2]; 1 µM,0
CCN(CC)S(=O)(=O)Nc1cccc(-c2ccc3c(NC(=O)C4CC4)n[nH]c3c2)c1 (collection day: 2),Neuronal cell count fold change,[1]; 0.1 µM,-0.531
same,Neuronal cell count fold change,[1]; 1 µM,0.107
same,Neuronal cell count fold change,[1]; 10 µM,0.107
same,progenitor-like (log2),[2]; 0.1 µM,0.181
same,progenitor-like (log2),[2]; 1 µM,0.366
same,progenitor-like (log2),[2]; 10 µM,0.0931
CCCCC(CC)CNC(=N)NC(=N)NCCCCCCNC(=N)NC(=N)NCC(CC)CCCC (stereo not drawn) [Alexidine dihydrochloride] (collection day: 2),Neuronal cell count fold change,[1]; 0.1 µM,-1.7
CCn1c(=O)[nH]c2ccccc21 (collection day: 1),Neuronal cell count fold change,[1]; 0.1 µM,-0.184
same,Neuronal cell count fold change,[1]; 1 µM,-0.474
same,Neuronal cell count fold change,[1]; 10 µM,-0.12
CN(C)CCOc1cc(-c2cn[nH]c2)ccc1NC(=O)C1COc2ccccc2O1 (stereo not drawn) [SR 3677 dihydrochloride] (collection day: 2),Neuronal cell count fold change,[1]; 0.1 µM,-0.241
same,Neuronal cell count fold change,[1]; 10 µM,0.547
same,progenitor-like (log2),[2]; 0.1 µM,0.391
same,progenitor-like (log2),[2]; 10 µM,-0.363

# Random excerpt: 3 entries already listed.
structure (smiles),measurement,setting,value
CN(C)CCOc1cc(-c2cn[nH]c2)ccc1NC(=O)C1COc2ccccc2O1 (stereo not drawn) [SR 3677 dihydrochloride] (collection day: 2),Neuronal cell count fold change,[1]; 0.1 µM,-0.241
Cc1cccc(-c2[nH]ncc2-c2ccc3ncccc3n2)n1 (collection day: 2),Neuronal cell count fold change,[1]; 1 µM,0.469
CNCCC(Oc1ccc(C(F)(F)F)cc1)c1ccccc1 (stereo not drawn) [Fluoxetine hydrochloride] (collection day: 1),Neuronal cell count fold change,[1]; 0.1 µM,-0.474
